Results taken from patent publication US20110223178A1.
Results are given in words; binding and its absence hold for the method and conditions named. Some entries that bind do so weakly or less than the wild type.

Sequences of proteins named here, by UniProt entry; tags and fusion partners are left off. A change or cut given only in a name is not applied to a line headed by its entry.
UniProt P78556: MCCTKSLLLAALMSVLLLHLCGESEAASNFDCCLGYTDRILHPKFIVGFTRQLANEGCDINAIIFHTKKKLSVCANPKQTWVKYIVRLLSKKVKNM

B1: scFv F076D02 (scFv)
scFv: QVQLVQSGAEVRKPGSSVKVSCKASGDTFNNFAISWVRQAPGHGLEWVGGIIPVFNTADYAQNFTGRVTISADKATKTVYMELRSLRYDDTAVYFCARTKIELDNDAFDIWGQGTMVTVSSGGGGSGGGGSGGGGSAQSVLTQPPSASGTPGQRVTISCSGTTSNIGSNSVSWYQKLPGTAPKLLIHSNNLRPSGVPDRFSGSKSGTSASLAISGLRSEDEADYYCAAWDDSLSGPVVFGGGTKVTVLG
B2: scFv F076C06 (scFv)
scFv: QVQLVQSGPEVKKPGSSVKVSCRASGGTFSTYAFSWVRQAPGQGLEWMGGIIPVFETPIYAQKLQGRLTITADTSTDTAYMELSNLRSGDTAVYYCAREWGDYYSSVSSGALHYWGRGTLVTVSSGGGGSGGGGSGGGGSAQAVLTQPSSASGTPGQRVTISCSGSSSNIGNNAVNWYQQLPGTAPKLLIYNNNQWPSGVPDRFSGSKSGTSASLAVSGLQSEDEADYYCAAWDDSLNGYVFGTGTQLTVLS
B3: scFv F002C08 (scFv)
scFv: EVQLVESGAEVKKPGSSVKVSCKASGGTFSSYAISWVRQAPGQGLEWMGGIIPIFGTANYAQKFQGRVTITADESTSTAYMELSSLGSEDTAVYYCARESLTGDSELDLWGKGTLVTVSSGGGGSGGGGSGGGGSQSVLTQPPSVSAAPGQKVTISCSGSTSNIGNNYVSWYQQHPGKAPKLMIYDVSKRPSGVPDRFSGSKSGNSASLDISGLQSEDEADYYCAAWDDSLSEFLFGTGTKLTVLG
B4: scFv F076F10 (scFv)
scFv: EVQLVQSGAEVKKPGSSVKVFCKTSGGTFSSYAFGWVRQRPGQGLEWMGGIIPNFDAANYAQKFQDTVAFTADTSTNTLYLELSSLTSDDTAVYYCAREVGVHASGLGAFDIWGRGTLVTVSSGGGGSGGGGSGGGGSAQSVLTQPPSVSGAPRQRVTISCSGSSSNIGDNVVNWYQQLPGKAPKLLIYYDDLLPSGVSDRFSGSKSGTSASLAISGLQSEDEADYFCAAWDDSLDAYVFGTRTKVTVLG
B5: scFv F081C09 (scFv)
scFv: QVQLVQSGAEVKKPGSSVRVSCKASGGSFSDYAIHWVRQAPGQGLEWMGGIIPIFGTANYAQKFQGRVTITADESTSTAYMELSSLRSEDTAVYYCAREAQYDDAFDIWGQRTMVTVSSGGGGSGGGGSGGGGSQSVLTQPPSVSAAPGQKVTISCSGSTSNIGNNYVSWYQQHPGKAPKLMIYDVSKRPSGVPDRFSGSKSGNSASLDISGLQSEDEADYYCAAWDDSLSEFLFGTGTKLTVLG
B6: scFv F002D07 (scFv)
scFv: QVQLVQSGGGVVQPGRSLRLSCAASGFIFSSYGMHWVRQAPGKGLEWVAGIFYDGGNKYYADSVKGRFTISRDNSKNTLYLQMNSLRAEDTAVYYCARDRGYYYMDVWGKGTTVTVSSGGGGSGGGGSGGGGSQSVLTQPPSVSGAPGQRVTISCTGRSSNIGAGHDVHWYQQLPGTAPKLLIYGDSNRPSGVPDRFSGSRSGTSASLAITGLQAEDEADYYCQSYDSSLRGSVFGGGTKVTVLG
B7: scFv F003F09 (scFv)
scFv: EVQLVQSGAEVRKPGSSVKVSCKASGDTFNNFAISWVRQAPGHGLEWVGGIIPVFNTADYAQNFTGRVTISADKATKTVYMELRSLRYDDTAVYFCARTKIELDNDAFDIWGRGTTVTVSSGGGGGSGGGGSGGGGSALPVLTQPPSASGTPGQRVTISCSGSTSNIGSNAVVWYQQLPGAAPKLLIYSNDQRPSGVPDRFSGSRSGTSASLAISGLQSEDEADYYCAAWDDSRDGPWVFGGGTKVTVLG
B8: scFv F003B07 (scFv)
scFv: EVQLVQSGAEVKKPGSSVKVSCKASGDTFDSYAFSWVRQAPGQGLEWMGGIIPMFDTPIYAQKFQGKVTITADTSTSTVYMKLSSLRSGDTAIYYCAREWGGYYSSESSGALQYWGRGTLVTVSSGGGGSGGGGSGGGGSAQAVLTQPSSVSGAPGQRVTISCTGSRSNIGADYDVQWYQQLPGTAPKLLIYGNNNRPSGVPDRFSGSKSDRSASLAITGLRAEDESDYYCQSYDSSLSVWVFGGGTKLTVLG
B9: scFv F075G06 (scFv)
scFv: EVQLVQSGPEVKKPGSSVKVSCRASGGTFSTYAFSWVRQAPGQGLEWMGGIIPVFETPIYAQKLQGRLTITADTSTDTAYMELSNLRSGDTAVYYCAREWGDYYSSVSSGALHYWGQGTLVTVSSGGGGSGGGGSGGGGSAQSVVTQPPSASGTPGQRVTISCSGSRSNIGSNIVNWYQQLVGTAPKLLIYSDNQRPSGVPDRFSGSKSGTSASLAISGLQSEDEADYYCAAWDDSLNRYVFGTGTKVTVLG
B10: scFv F002E03 (scFv)
scFv: EVQLVQSGAEVKKPGSSVKVSCKASGGTFSSYAISWVRQAPGQGLEWMGGIIPMFGAGNYAPKFQDRVTLTADESTSTAYMELSSLTSEDTAVYFCARDSTDFSGDSGLGMDVWGRGTMVTVSSGGGGPGGGGSGGGGSDIQMTQSPSFLSASVGDRVTITCRASQGINNYLAWYQQKPGRAPKLLIYAASSLQSGVPSRFSGSGSGTDFTLTISSLQPEDFATYYCLQDSDYPLTFGGGTKLEIKR
B11: scFv F003F01 (scFv)
scFv: EVQLVQSGAEVRKPASSVKVSCKTSGGSFNDYSFNWVRQAPGQGLEWMGSIIPVFDMADYGQNFQGRLTITADESTTTAYMELSDLTPMDTAIYYCARVAMVGATHFDIWGQGTLVTVSSGGGGSGGGGSGGGGSAQSVLTQPPSASGTPGQRVTISCSGGSSNIGSNPVNWYQQVPGTAPKLLIYLSDQRPAGVPDRFSGSKSGTSASLAISGLQSEDEADYYCSTWDDSLNDPVVFGGGTKVTVLG
B12: scFv F003G02 (scFv)
scFv: QVQLQQSGAEVKKPGSSVKVSCKASGGTFSSYAISWVRQAPGQGLEWMGGIIPTFGIADYAQKFQGRVTITADESTSTAYMELTGLRSEDTAMYYCARGQLERLGEYDYWGRGTMVTVSSGGGGSGGGGSGGGGSAQSVLTQPPSASGTPGQRVTISCSGSSSNIEINTVNWYKQLPGTAPKLLIYSDYQRPSGVPDRFSASKSGTSASLAISGLQSEDEADYYCATWDDSLNGPVFGGGTKVTVLG
B13: scFv F002G03 (scFv)
scFv: QVQLVQSGAEVKKPGSSVKVSCKASGGTFNRYAISWVRQAPGQGLEWMGGIIPMFATPIYSQKFQDRVTITADESTSTAYMELSSLRSEDTAVYYCARDRTDYYDTDGYQSPDSWGKGTLVTVSSGGGGPGGGGSGGGGSDIQMTQSPSTLSASIGDRVTITCRASQGINNYLAWYQQKPGRAPKLLIYAASSLQSGVPSRFSGSGSGTDFTLTISSLQPEDFATYYCLQDSDYPLTFGGGTKLEIKR

What follows are binders tested against Chemokine beta-4 (CK-β4) (human) (UniProt P78556) (assay: phage display selection of scFvs on CK-β4).

binding, binds:
B1
B2
B3
B4
B5
B6
B7
B8
B9
B10
B11
B12
B13
